Reference: patent US20040006094A1, “4-pyrimidinamine derivatives, pharmaceutical compositions and related methods” (priority 2000, published 2004)
At least one compound was matched to its structure with a doubt left.

Experiments:
[1] = target: differentiated P19 neurons; assay: Differentiated P19 excitotoxicity assay: neuroprotection by known kinase inhibitors against glutamate/glycine (Alamar Blue, CFDA); type: cell-based, murine; settings: 3 mM glutamate, 1 mM glycine; mean of three separate curves
Description: Data points are the average±standard error of three separate experiments.
These cells were used to measure the effects of various known kinase inhibitors (Compound Identification (ID) column in Table I) upon cytotoxicity-induced by NMDA. First, P19 cells were differentiated as described in Example 2. Then cells were exposed to 3 mM of glutamate in the presence of 1 mM glycine.
Cell viability was determined. Compounds that prevented excitotoxicity were determined by measuring the percentage of viable cells compared to differentiated P19 cells that were not presented with a toxic insult (Table I).
Cell viability was measured using two methods. The first method was a confocal, single-cell fluorescence imaging-based method using the live cell dye carboxy-fluorescein diacetate (CFDA). CFDA labels the cell bodies and processes of living cells. […] CFDA fluorescence was measured using a modified Attofluor Imager device (Atto Instruments, Rockville Pike, Md.). […]
The second method for measuring cell viability was a plate reader method. […] Baseline fluorescence counts were read at room temperature in a Wallac plate reader immediately after addition of Alamar blue. Fluorescence counts of cell viability were taken the same way after 1 hour incubation at 37° C. Fluorescence was expressed as a percent of control, untreated cells after subtraction of background fluorescence. […]

IP3 turnover = settings: read-out: Potency, Ki, IP3 turnover; cited from earlier work

[Li] [Lithium]
IC50 for Neuroprotection [lower-upper 95% C.I.] [1]: Ineffective | Ki (IP3 turnover): ~500 nM
